# Results as given in the supplement of paper PMC9135407.
# Several values for one entry are separate records, joined by “and”; a condition that tells them apart may be missing. Equal values may be shown once. Where a name gives a salt, the structure may show the parent alone. ± gives the standard deviation of the averaged measurements. This is one part of the list. Baselines shift from plate to plate; read single values as rough.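 Culture-activated primary human stellate myofibroblasts, where regained lipid droplets signal inactivation. Value: share of Hoechst-counted cells above a per-plate Bodipy cutoff, in duplicate wells, with DMSO negative and nortriptyline positive controls on each plate. Hits: a control-normalized score above the plate's top-tenth-percentile nortriptyline wells, or one of a plate's three best wells. Final well concentrations are not given.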
# Tested on: primary human hepatic stellate cells (donor 1)
# Experiment: percent Bodipy-positive cells; higher = more lipid droplet accumulation
# Details: 48 h
# [1] = library stock concentration: 3.33 mM
# [2] = library stock concentration: 10 mM
# [3] = library stock concentration: 80 uM
# [4] = library stock concentration: 400 uM
# [5] = library stock concentration: 2 mM
# [6] = library stock concentration: 1 mM
# [7] = library stock concentration: 7.9 mM
compound,measurement,setting,value
NS(=O)(=O)c1cc(Cl)c(Cl)c(S(N)(=O)=O)c1 [Dichlorphenamide],percent Bodipy-positive cells,,6.47 ± 2.8%
same,percent Bodipy-positive cells,[1],13.5 ± 1.6%
same,percent Bodipy-positive cells,[2],16.2 ± 1.7%
C/C(=C\C(=O)Nc1ccccc1C(=O)O)c1ccc2ccccc2c1,percent Bodipy-positive cells,[1],7.25 ± 0.69%
same,percent Bodipy-positive cells,[2],11.7 ± 0.02%
O=C(c1ccc(/C=C/c2n[nH]c3ccccc23)cc1)N1CCNCC1,percent Bodipy-positive cells,[3],9.54 ± 0.89%
same,percent Bodipy-positive cells,[4],9.1 ± 7%
same,percent Bodipy-positive cells,[5],12.7 ± 1.6%
same,percent Bodipy-positive cells,[1],31.9 ± 2.8%
same,percent Bodipy-positive cells,[2],94.7 ± 2.8%
Cc1cc(Cl)ccc1OCCCC(=O)NO [Droxinostat],percent Bodipy-positive cells,[1],6.27 ± 3.7%
same,percent Bodipy-positive cells,[2],26.4% and 22%
O=C(NCCN1CCOCC1)c1ccc(Cl)cc1,percent Bodipy-positive cells,[1],28.2 ± 12%
same,percent Bodipy-positive cells,[2],11 ± 2.6%
O=C(NCCN1CCOCC1)c1ccc(Cl)cc1 [4-Chloro-N-(2-morpholin-4-yl-ethyl)-benzamide],percent Bodipy-positive cells,[2],12.9 ± 9.2%
O=C(NCCN1CCOCC1)c1ccc(Cl)cc1 [Moclobemide],percent Bodipy-positive cells,,22.3 ± 1.1%
same,percent Bodipy-positive cells,[2],27.7 ± 2.9%
CNC(=O)c1ccc(Nc2cc(Nc3ccccc3S(=O)(=O)C(C)C)c3cc[nH]c3n2)nc1,percent Bodipy-positive cells,[3],16.7 ± 1.8%
same,percent Bodipy-positive cells,[4],8.34 ± 0.68%
same,percent Bodipy-positive cells,[5],5.61 ± 2%
same,percent Bodipy-positive cells,[2],11.7 ± 0.51%
Cc1ccc(-n2sc(=O)n(Cc3ccc(F)cc3)c2=O)cc1,percent Bodipy-positive cells,[1],30.5 ± 1.7%
same,percent Bodipy-positive cells,[2],87.1 ± 2%
Cl.O[C@H](CNC[C@@H](O)[C@H]1CCc2cc(F)ccc2O1)[C@@H]1CCc2cc(F)ccc2O1 [Nebivolol hydrochloride],percent Bodipy-positive cells,[2],84.9 ± 0.97%
CN(C)CCCSC(=N)N [Dimaprit dihydrochloride],percent Bodipy-positive cells,,8.33 ± 5.9%
same,percent Bodipy-positive cells,[2],6.6 ± 1.3%
CN(C)CCOc1ccc(-c2nc(-c3ccncc3)c(-c3ccc4c(c3)CC/C4=N\O)[nH]2)cc1,percent Bodipy-positive cells,[3],22.5 ± 6.2%
same,percent Bodipy-positive cells,[4],35.8% and 54%
same,percent Bodipy-positive cells,[2],87.5% and 98.3% and 100%
NCCNCCNCCN [Trientine hydrochloride],percent Bodipy-positive cells,library stock concentration: 9.1 mM,10.9 ± 5%
CCCC(CCC)C(=O)O[C@H]1C[C@H]2CC[C@@H](C1)[N+]2(C)C [Anisotropine methyl bromide],percent Bodipy-positive cells,[2],21.5 ± 3.5%
Cc1onc(-c2c(F)cccc2Cl)c1C(=O)N[C@@H]1C(=O)N2[C@@H]1SC(C)(C)[C@@H]2C(=O)O [Flucloxacillin sodium],percent Bodipy-positive cells,,9.84 ± 2.7%
C=CCNC(=O)c1cc([N+](=O)[O-])cc2c(=O)[nH]c(Nc3ccc(Cl)c(Cl)c3)nc12,percent Bodipy-positive cells,[2],5.96 ± 0.71%
C[C@H](Cc1cc2c(c(C(N)=O)c1)N(CCCO)CC2)NCCOc1ccccc1OCC(F)(F)F [Silodosin],percent Bodipy-positive cells,[1],13.9 ± 6.2%
same,percent Bodipy-positive cells,[2],29.1 ± 5%
CN1CCN(Cc2ccc(-c3cnc4[nH]cc(-c5ccc6[nH]ccc6c5)c4c3)cc2)CC1,percent Bodipy-positive cells,[5],97 ± 2.4%
CN1[C@@H]2CC[C@H]1CC(OC(=O)c1c[nH]c3ccccc13)C2 (stereo partly drawn) [3-Tropanyl-indole-3-carboxylate hydrochloride],percent Bodipy-positive cells,[2],67.6 ± 1.4%
CCCCCCCCCCCCCCCCCCOCC(COP(=O)([O-])OCC[N+](C)(C)C)OC (stereo not drawn),percent Bodipy-positive cells,[2],84.7 ± 14%
CC(C)c1ccc2c(c1)CC[C@H]1[C@](C)(CN)CCC[C@]21C.Cl [Leelamine (hydrochloride)],percent Bodipy-positive cells,[6],33.9 ± 2.2%
CC[C@]1(O)C[C@H]2CN(CCc3c([nH]c4ccccc34)[C@@](C(=O)OC)(c3cc4c(cc3OC)N(C)[C@H]3[C@@](O)(C(=O)OC)[C@H](OC(C)=O)[C@]5(CC)C=CCN6CC[C@]43[C@@H]65)C2)C1.O=S(=O)(O)O [Vinblastine sulfate],percent Bodipy-positive cells,[2],96.7 ± 1.4%
CCCCC[C@H](O)/C=C/[C@@H]1[C@@H](C/C=C/CCCC(=O)O)[C@H](O)C[C@H]1O [5-trans Prostaglandin F2.beta.],percent Bodipy-positive cells,[6],13.4 ± 0.77%
COc1cc(C(C)=O)ccc1OCCCN1CCC(c2noc3cc(F)ccc23)CC1 [Iloperidone],percent Bodipy-positive cells,[1],19.3 ± 2.2%
same,percent Bodipy-positive cells,[2],64.5 ± 4.3%
CCOC(=O)[C@H](CCc1ccccc1)N[C@H]1CCCN2CCC[C@@H](C(=O)O)N2C1=O [Cilazapril Monohydrate],percent Bodipy-positive cells,[1],12.2 ± 5.6%
same,percent Bodipy-positive cells,[2],35 ± 17%
CCCC1O[C@@H]2C[C@H]3[C@@H]4CCC5=CC(=O)C=C[C@]5(C)[C@H]4[C@@H](O)C[C@]3(C)[C@]2(C(=O)CO)O1 (stereo partly drawn),percent Bodipy-positive cells,[2],20.9 ± 4%
CCCC1O[C@@H]2C[C@H]3[C@@H]4CCC5=CC(=O)C=C[C@]5(C)[C@H]4[C@@H](O)C[C@]3(C)[C@]2(C(=O)CO)O1 (stereo partly drawn) [Budesonide],percent Bodipy-positive cells,,17.67 ± 0.12%
same,percent Bodipy-positive cells,[1],8.76 ± 1.7%
"NCCC1CCCC(CCN)N1 (stereo not drawn) [MDL 26,630 trihydrochloride]",percent Bodipy-positive cells,[2],32.6 ± 12%
CC(C)n1nnc2cc(C(=O)O)ccc21,percent Bodipy-positive cells,[2],7.26 ± 0.41%
Fc1ccc([C@@H]2CCNC[C@H]2COc2ccc3c(c2)OCO3)cc1.O=C(O)/C=C\C(=O)O [Paroxetine],percent Bodipy-positive cells,[2],99.27 ± 0.23%
C[C@H](NC(=O)C(C#N)=Cc1cccc(Br)n1)c1ccccc1,percent Bodipy-positive cells,[1],89.1 ± 2.3%
COc1cc(C(O)CO)ccc1OS(=O)(=O)O (stereo not drawn) [MHPG sulfate potassium],percent Bodipy-positive cells,[2],43.7 ± 1.3%
c1cc(-c2cnn3cc(-c4ccc(N5CCNCC5)cc4)cnc23)c2cccnc2c1,percent Bodipy-positive cells,[1],100%
same,percent Bodipy-positive cells,[2],91.9 ± 5.3%
CC(C(=O)O)c1cccc(C(=O)c2ccccc2)c1 (stereo not drawn) [Ketoprofen (s)],percent Bodipy-positive cells,[7],7.97 ± 2.2%
CC(C(=O)O)c1cccc(C(=O)c2ccccc2)c1 (stereo not drawn) [Ketoprofen],percent Bodipy-positive cells,,32.2 ± 4.5%
same,percent Bodipy-positive cells,[6],10.4 ± 2.3%
same,percent Bodipy-positive cells,[1],5.85 ± 3.1%
same,percent Bodipy-positive cells,[7],8.88% and 16.9%
same,percent Bodipy-positive cells,[2],12.2% and 11.4% and 24.2%
C=C1CC2(O)OC3(CC2C(C)C)C(C)CCC13 (stereo not drawn) [Curcumol],percent Bodipy-positive cells,[1],6.37 ± 2.3%
same,percent Bodipy-positive cells,[2],9.15 ± 3.8%

# Quoted at random: 3 entries already listed.
compound,measurement,setting,value
CC(C(=O)O)c1cccc(C(=O)c2ccccc2)c1 (stereo not drawn) [Ketoprofen],percent Bodipy-positive cells,,32.2 ± 4.5%
C[C@H](Cc1cc2c(c(C(N)=O)c1)N(CCCO)CC2)NCCOc1ccccc1OCC(F)(F)F [Silodosin],percent Bodipy-positive cells,[2],29.1 ± 5%
O=C(NCCN1CCOCC1)c1ccc(Cl)cc1 [4-Chloro-N-(2-morpholin-4-yl-ethyl)-benzamide],percent Bodipy-positive cells,[2],12.9 ± 9.2%
